Laboratory results published in PubChem BioAssay AID1347430 (National Center for Advancing Translational Sciences (NCATS), 2020).
The campaign covered roughly 91,000 compounds. About 130 (0.14%) were called active. Listed are the inconclusive results; actives and inactives stand elsewhere. The call rests on the fitted dose curve; in most records, active means well fitted inhibition curve with a large enough effect; inconclusive means small, poorly fitted or top-dose-only effect; inactive means flat fitted curve, though single readings scatter.

Tested on: Uracil-DNA glycosylase
Assay: Primary qHTS assay for inhibitors of Activation Induced Cytidine Deaminase (AID): UDG Counterscreen signal; further: nearly all actives have a fitted effect of over 65% in size
Settings: FRET deamination/UDG coupled assay, UDG read, 4 h
Excerpt: Assay Provider (PI) Patricia Gearhart Ph.D.
National Institute on Aging
National Institute of Health (NIH), Bethesda, MD
Assay Provider (PI) Rahul Kohli Ph.D.
Perelman School of Medicine
University of Pennsylvania, Philadelphia, PA
Activation-Induced Deaminase (AID) is a cytosine deaminase which converts cytosine into uracil within stretches of ssDNA. The presence of uracil in DNA initiates a cascade of mutagenic DNA repair to introduce point mutations and DNA double strand breaks. Specific targeting of AID to the immunoglobulin heavy chain loci (Igh) promotes mutagenesis in the antibody variable region for somatic hypermutation (SHM) or switch regions leading to class switch recombination (CSR). […]
A FRET based analysis of cytosine deamination, was developed to identify potential inhibitors of AID catalytic activity. This screen has two signal output, Read 1 evaluates the AID inhibition response. The second readout (Read 2) evaluates UDG response and is uses as a counterscreen to exclude false positive inhibitors. […]
9a; Detection; fluorescence (Read 1: AID); EnVision (PerkinElmer) plate reader, 540 excitation and 590 emission filters
9b; Detection; fluorescence (Read 2: UDG); EnVision (PerkinElmer) plate reader, 560 excitation and 665 emission filters […]
9a; Fluorescence signal (column label AID) was read using the EnVision plate reader. […]
Potency means the concentration at half of the fitted maximal effect.

SMILES	Potency
Fc1ccc(CN2CCC(Nc3ccc(Br)cc3)CC2)cc1	inconclusive: 89.1 µM
